{"source": "PubChem BioAssay AID504808 (Drosophila RNAi Screening Center, 2011)", "test": "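Chromatin factors that keep E2F targets switched off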 (primary screen)", "system": "Drosophila S2 cells", "reagents": "long dsRNA against Drosophila genes", "detection": "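Firefly luciferase driven by E2F sites, normalised to Renilla luciferase on the same minimal promoter, measured by plate reader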", "direction": "E2F firefly: higher = more E2F reporter activity; Renilla normaliser: higher = more normaliser reporter signal", "call rule": "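a knock-down counted as active when the firefly/Renilla E2F signal rose above 50%, a threshold chosen arbitrarily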", "note": "The deposit covers about 21,000 reagents; this is an unselected part of those with a known target gene and a result. Over the whole deposit, 18 (0.084%) got an active call. 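Raw counts without plate normalisation, one of two replicates; the ratio scores behind the calls were not deposited.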 Reagent sequences are not shown. Not stated in the record: the amount of reagent, the time to read-out."}
{"Target gene": "CG8837", "DRSC id": "DRSC00711", "E2F firefly, rep 1": 1.43e5, "Renilla normaliser, rep 1": 4876, "outcome": "inactive"}
{"Target gene": "Wdr24 (WD repeat domain 24)", "DRSC id": "DRSC14151", "E2F firefly, rep 1": 1648, "Renilla normaliser, rep 1": 952, "outcome": "inactive"}
{"Target gene": "Nfs1 (Nfs1 cysteine desulfurase)", "DRSC id": "DRSC02154", "E2F firefly, rep 1": 78843, "Renilla normaliser, rep 1": 3419, "outcome": "inactive"}
{"Target gene": "Vha68-2 (Vacuolar H[+] ATPase 68 kDa subunit 2)", "DRSC id": "DRSC02721", "E2F firefly, rep 1": 99818, "Renilla normaliser, rep 1": 4601, "outcome": "inactive"}
{"Target gene": "CG31199", "DRSC id": "DRSC15284", "E2F firefly, rep 1": 59480, "Renilla normaliser, rep 1": 2977, "outcome": "inactive"}
{"Target gene": "NC2beta (Negative Cofactor 2beta)", "DRSC id": "DRSC01895", "E2F firefly, rep 1": 93795, "Renilla normaliser, rep 1": 201, "outcome": "inactive"}
{"Target gene": "CG5568", "DRSC id": "DRSC10518", "E2F firefly, rep 1": 70927, "Renilla normaliser, rep 1": 3221, "outcome": "inactive"}
{"Target gene": "CG3916", "DRSC id": "DRSC15520", "E2F firefly, rep 1": 1.65e5, "Renilla normaliser, rep 1": 7721, "outcome": "inactive"}
{"Target gene": "CG8788", "DRSC id": "DRSC07267", "E2F firefly, rep 1": 1.46e5, "Renilla normaliser, rep 1": 4933, "outcome": "inactive"}
{"Target gene": "CG12439", "DRSC id": "DRSC02168", "E2F firefly, rep 1": 1.52e5, "Renilla normaliser, rep 1": 5538, "outcome": "inactive"}
{"Target gene": "hob (hobbit)", "DRSC id": "DRSC08426", "E2F firefly, rep 1": 78940, "Renilla normaliser, rep 1": 3294, "outcome": "inactive"}
{"Target gene": "snk (snake)", "DRSC id": "DRSC17060", "E2F firefly, rep 1": 1.19e5, "Renilla normaliser, rep 1": 6421, "outcome": "inactive"}
{"Target gene": "Obp8a (Odorant-binding protein 8a)", "DRSC id": "DRSC17868", "E2F firefly, rep 1": 1.34e5, "Renilla normaliser, rep 1": 5797, "outcome": "inactive"}
{"Target gene": "amd (alpha methyl dopa-resistant)", "DRSC id": "DRSC02608", "E2F firefly, rep 1": 90904, "Renilla normaliser, rep 1": 3890, "outcome": "inactive"}
{"Target gene": "amd (alpha methyl dopa-resistant)", "DRSC id": "DRSC03483", "E2F firefly, rep 1": 97402, "Renilla normaliser, rep 1": 4009, "outcome": "inactive"}
{"Target gene": "fal (falten)", "DRSC id": "DRSC11087", "E2F firefly, rep 1": 68947, "Renilla normaliser, rep 1": 3050, "outcome": "inactive"}
{"Target gene": "RpLP1 (Ribosomal protein LP1)", "DRSC id": "DRSC00783", "E2F firefly, rep 1": 1.23e5, "Renilla normaliser, rep 1": 5851, "outcome": "inactive"}
{"Target gene": "dsf (dissatisfaction)", "DRSC id": "DRSC03524", "E2F firefly, rep 1": 1.51e5, "Renilla normaliser, rep 1": 4790, "outcome": "inactive"}
{"Target gene": "Targ3 (Terminal ADP-ribose protein glycohydrolase 3)", "DRSC id": "DRSC11471", "E2F firefly, rep 1": 86807, "Renilla normaliser, rep 1": 3559, "outcome": "inactive"}
{"Target gene": "Lrch (Leucine-rich-repeats and calponin homology domain protein)", "DRSC id": "DRSC02996", "E2F firefly, rep 1": 83301, "Renilla normaliser, rep 1": 3483, "outcome": "inactive"}
{"Target gene": "sle (slender lobes)", "DRSC id": "DRSC14557", "E2F firefly, rep 1": 68382, "Renilla normaliser, rep 1": 3900, "outcome": "inactive"}
{"Target gene": "Rpn10 (Regulatory particle non-ATPase 10)", "DRSC id": "DRSC11876", "E2F firefly, rep 1": 94733, "Renilla normaliser, rep 1": 7666, "outcome": "inactive"}
{"Target gene": "CG33322", "DRSC id": "DRSC03204", "E2F firefly, rep 1": 1.06e5, "Renilla normaliser, rep 1": 4032, "outcome": "inactive"}
{"Target gene": "Pde9 (Phosphodiesterase 9)", "DRSC id": "DRSC19746", "E2F firefly, rep 1": 1.37e5, "Renilla normaliser, rep 1": 6374, "outcome": "inactive"}
{"Target gene": "Pde9 (Phosphodiesterase 9)", "DRSC id": "DRSC19874", "E2F firefly, rep 1": 1.31e5, "Renilla normaliser, rep 1": 6962, "outcome": "inactive"}
{"Target gene": "Pde9 (Phosphodiesterase 9)", "DRSC id": "DRSC19875", "E2F firefly, rep 1": 7696, "Renilla normaliser, rep 1": 393, "outcome": "inactive"}
{"Target gene": "Pde9 (Phosphodiesterase 9)", "DRSC id": "DRSC19876", "E2F firefly, rep 1": 1.01e5, "Renilla normaliser, rep 1": 4827, "outcome": "inactive"}
{"Target gene": "Ir94g (Ionotropic receptor 94g)", "DRSC id": "DRSC15231", "E2F firefly, rep 1": 1.05e5, "Renilla normaliser, rep 1": 5770, "outcome": "inactive"}
